The record followed here is patent publication US6982315 (dated 2006).

The nature of this series: general procedure: Fmoc solid-phase peptide synthesis; TCP (trityl chloride-polystyrene) resin; triphosgene (BTC)/collidine/DIEA; in some couplings HOAt/DIC or HATU/DIEA. To be noted: for cyclisation yield: cyclisation step.

Turning to MeLeu-MeLeu-MeVal-MeLeu, the “purity (crude or final not stated)” value (whole synthesis, HPLC (214 nm)) is “over 98%”.
Turning to “H-Nva-Sar-MeLeu-Val-MeLeu-Ala-D-Ala-MeLeu-MeLeu-MeVal-MeLeu-(TCP resin)”, the cyclisation yield entry was “about 75 to 80%”. The substance also gave a cyclisation yield (on linear precursor) of 82.4%. Besides, the step yield (purification step, of the crude product) was 35.7%. Also, under “whole synthesis, on first resin loading”, the isolated yield is recorded as 14.9%. Where the note is “whole synthesis, overall”, this substance showed a crude yield of 41.8%.
Take Fmoc-MeLeu-MeLeu-MeVal-MeLeu-OH: the “crude HPLC purity” value (whole synthesis, UV 214 nm) is on record as “over 99%”.
